Laboratory results published in patent publication US8298519B2, “Hair treatment compositions incorporating hair substantive polymers” (Conopco, Inc., priority 2006, dated 2012).

Test: Uptake and substantivity of dihydroxybenzene isomers on human hair (packed hair column, gravimetric)
Conditions: for Substantivity on hair (%): retained on hair after 3x ethanol/water (50:50) rinse; for Uptake on hair (%): retained on hair column after initial elution, ethanol/water solution

SMILES	Substantivity on hair (%)	Uptake on hair (%)
Oc1cccc(O)c1 [1,3 dihydroxybenzene]	17%	30%
Oc1ccc(O)cc1 [1,4 dihydroxybenzene]	7%	33%
Oc1ccccc1O [1,2 dihydroxybenzene]	88%	91%
